In assay [1] the target is His-tagged TIP60 wild type (UniProt Q92993). As to the kind of experiment: pull-down; same pull-down at higher NaCl (until 500 mM for TIP60WT, up to 1 M for the MYST domain); data not shown; both purified.
Assay [2] shares this target. Description: pull-down; His-tagged TIP60 WT or mutants immobilised on Ni-NTA agarose beads; equal quantity of GST-UHRF1 added in PBS with 30 mM imidazole and 0.1% triton; 150 mM NaCl; five washes; SDS-PAGE and Western blot; both purified. On the technique in general: A western blot detects proteins with antibodies after separation by electrophoresis.
In a further assay the target is TIP60-eGFP wild type (UniProt Q92993). Description: co-IP; HeLa cells (untransfected or transfected), lysed by freeze shock and sonication in PBS with protease inhibitors; 800 μg to 1 mg lysate with antibody (anti-mCherry, anti-eGFP or anti-UHRF1) 4 h at 4 °C, Dynabeads Protein A 1 h at 4 °C, five washes; Western blot.

Protein sequences, listed by entry. Tags and fused reporters are not part of them.
UniProt Q92993: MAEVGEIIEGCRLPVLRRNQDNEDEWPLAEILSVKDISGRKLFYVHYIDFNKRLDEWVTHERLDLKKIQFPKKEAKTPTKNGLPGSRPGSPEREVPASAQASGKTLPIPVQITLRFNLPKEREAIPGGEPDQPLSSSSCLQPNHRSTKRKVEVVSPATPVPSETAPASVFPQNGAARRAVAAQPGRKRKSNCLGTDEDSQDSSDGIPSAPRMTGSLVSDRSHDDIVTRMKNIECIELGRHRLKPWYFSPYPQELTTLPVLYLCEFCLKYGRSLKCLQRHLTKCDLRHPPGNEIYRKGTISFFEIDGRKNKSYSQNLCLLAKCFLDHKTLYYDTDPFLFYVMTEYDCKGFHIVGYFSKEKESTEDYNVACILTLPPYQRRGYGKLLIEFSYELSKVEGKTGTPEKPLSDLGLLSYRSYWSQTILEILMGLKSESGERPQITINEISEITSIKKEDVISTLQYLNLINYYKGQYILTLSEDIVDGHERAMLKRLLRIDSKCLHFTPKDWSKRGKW

Results on three molecules are retold here after paper PMC5740878.

No constants are given. Whether binding was seen depends on the method and setting. For some of these results: Binding seen in cells or lysates may run through a third protein. Some results given as binding are weak or reduced against the parent protein; the word gives no strength. For some of these results: Sequences can lack the tags named with a protein.

B1: GST-UHRF1 (protein, UniProt Q96T88 1-793)
chain: MWIQVRTMDGRQTHTVDSLSRLTKVEELRRKIQELFHVEPGLQRLFYRGKQMEDGHTLFDYEVRLNDTIQLLVRQSLVLPHSTKERDSELSDTDSGCCLGQSESDKSSTHGEAAAETDSRPADEDMWDETELGLYKVNEYVDARDTNMGAWFEAQVVRVTRKAPSRDEPCSSTSRPALEEDVIYHVKYDDYPENGVVQMNSRDVRARARTIIKWQDLEVGQVVMLNYNPDNPKERGFWYDAEISRKRETRTARELYANVVLGDDSLNDCRIIFVDEVFKIERPGEGSPMVDNPMRRKSGPSCKHCKDDVNRLCRVCACHLCGGRQDPDKQLMCDECDMAFHIYCLDPPLSSVPSEDEWYCPECRNDASEVVLAGERLRESKKKAKMASATSSSQRDWGKGMACVGRTKECTIVPSNHYGPIPGIPVGTMWRFRVQVSESGVHRPHVAGIHGRSNDGAYSLVLAGGYEDDVDHGNFFTYTGSGGRDLSGNKRTAEQSCDQKLTNTNRALALNCFAPINDQEGAEAKDWRSGKPVRVVRNVKGGKNSKYAPAEGNRYDGIYKVVKYWPEKGKSGFLVWRYLLRRDDDEPGPWTKEGKDRIKKLGLTMQYPEGYLEALANREREKENSKREEEEQQEGGFASPRTGKGKWKRKSAGGGPSRAGSPRRTSKKTKVEPYSLTAQQSSLIREDKSNAKLWNEVLASLKDRPASGSPFQLFLSKVEETFQCICCQELVFRPITTVCQHNVCKDCLDRSFRAQVFSCPACRYDLGRSYAMQVNQPLQTVLNQLFPGYGNGR
As for B1, the binding result in assay [1] and in assay [2] was “binds” in each case.

B2: endogenous UHRF1 (protein, UniProt Q96T88 1-793)
chain: B1 chain
Turning to B2, in the assay with TIP60-eGFP wild type, the binding entry is given as “binds”.

B3: UHRF1-mCherry (protein, UniProt Q96T88 1-793)
chain: B1 chain
For the molecule B3, in the assay with TIP60-eGFP wild type, the binding entry is on record as “binds”.
